Results are given in words; binding and its absence hold for the method and conditions named. Binding seen in cells or lysates may run through a third protein. Some results given as binding are weak or reduced against the parent protein; the word gives no strength. Where a sequence is shown, tags or fusion partners need not be part of it.

The chains behind the UniProt entries cited, without tags or fusion partners.
UniProt Q9WVM3: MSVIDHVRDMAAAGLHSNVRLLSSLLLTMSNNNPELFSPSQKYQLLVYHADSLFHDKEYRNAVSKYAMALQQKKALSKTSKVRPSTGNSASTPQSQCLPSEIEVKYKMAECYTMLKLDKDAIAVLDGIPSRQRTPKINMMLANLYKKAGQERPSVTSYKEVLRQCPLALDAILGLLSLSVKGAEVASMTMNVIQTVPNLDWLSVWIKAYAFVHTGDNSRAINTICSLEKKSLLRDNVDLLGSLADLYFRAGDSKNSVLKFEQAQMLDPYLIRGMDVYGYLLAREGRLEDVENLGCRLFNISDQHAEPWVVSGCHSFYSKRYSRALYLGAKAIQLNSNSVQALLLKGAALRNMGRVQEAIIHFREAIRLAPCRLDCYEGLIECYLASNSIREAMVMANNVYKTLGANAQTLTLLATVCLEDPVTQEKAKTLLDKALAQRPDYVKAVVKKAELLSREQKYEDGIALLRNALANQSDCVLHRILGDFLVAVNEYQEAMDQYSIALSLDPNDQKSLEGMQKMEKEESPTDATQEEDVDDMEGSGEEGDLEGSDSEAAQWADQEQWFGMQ

Test [1] addresses T1, full length IL-17RA (Myc-tagged) (UniProt Q60943).
T1 sequence: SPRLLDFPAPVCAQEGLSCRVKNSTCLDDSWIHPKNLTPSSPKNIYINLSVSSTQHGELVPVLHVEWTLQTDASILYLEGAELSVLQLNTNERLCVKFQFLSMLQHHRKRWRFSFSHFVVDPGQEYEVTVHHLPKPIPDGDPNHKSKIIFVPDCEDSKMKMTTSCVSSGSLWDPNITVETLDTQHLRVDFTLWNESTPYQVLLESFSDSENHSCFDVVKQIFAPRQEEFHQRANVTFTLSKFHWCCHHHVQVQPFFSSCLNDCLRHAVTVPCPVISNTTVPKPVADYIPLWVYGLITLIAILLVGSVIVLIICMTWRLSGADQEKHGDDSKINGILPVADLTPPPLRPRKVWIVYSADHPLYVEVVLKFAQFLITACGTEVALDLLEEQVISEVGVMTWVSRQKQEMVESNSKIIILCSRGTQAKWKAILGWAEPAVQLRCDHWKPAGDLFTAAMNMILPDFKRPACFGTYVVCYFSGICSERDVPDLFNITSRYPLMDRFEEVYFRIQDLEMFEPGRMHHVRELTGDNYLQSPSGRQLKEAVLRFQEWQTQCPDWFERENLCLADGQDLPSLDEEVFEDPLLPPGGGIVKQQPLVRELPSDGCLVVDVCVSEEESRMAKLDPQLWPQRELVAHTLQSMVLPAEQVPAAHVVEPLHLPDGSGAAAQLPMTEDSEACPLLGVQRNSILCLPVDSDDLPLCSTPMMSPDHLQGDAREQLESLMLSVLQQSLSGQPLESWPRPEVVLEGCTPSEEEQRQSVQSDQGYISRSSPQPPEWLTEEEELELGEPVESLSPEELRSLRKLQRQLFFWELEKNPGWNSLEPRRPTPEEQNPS
Briefly: co-IP; HEK293T cells co-transfected with HA-tagged AnapC7 or AnapC5 and a Myc-tagged partner; lysates immunoprecipitated with anti-Myc and immunoblotted for HA or Myc. For orientation: Immunoblotting shows a protein as a band on a membrane.

In test [2] the target is T2, full length IL-17RC (Myc-tagged) (UniProt Q8K4C2).
T2 sequence: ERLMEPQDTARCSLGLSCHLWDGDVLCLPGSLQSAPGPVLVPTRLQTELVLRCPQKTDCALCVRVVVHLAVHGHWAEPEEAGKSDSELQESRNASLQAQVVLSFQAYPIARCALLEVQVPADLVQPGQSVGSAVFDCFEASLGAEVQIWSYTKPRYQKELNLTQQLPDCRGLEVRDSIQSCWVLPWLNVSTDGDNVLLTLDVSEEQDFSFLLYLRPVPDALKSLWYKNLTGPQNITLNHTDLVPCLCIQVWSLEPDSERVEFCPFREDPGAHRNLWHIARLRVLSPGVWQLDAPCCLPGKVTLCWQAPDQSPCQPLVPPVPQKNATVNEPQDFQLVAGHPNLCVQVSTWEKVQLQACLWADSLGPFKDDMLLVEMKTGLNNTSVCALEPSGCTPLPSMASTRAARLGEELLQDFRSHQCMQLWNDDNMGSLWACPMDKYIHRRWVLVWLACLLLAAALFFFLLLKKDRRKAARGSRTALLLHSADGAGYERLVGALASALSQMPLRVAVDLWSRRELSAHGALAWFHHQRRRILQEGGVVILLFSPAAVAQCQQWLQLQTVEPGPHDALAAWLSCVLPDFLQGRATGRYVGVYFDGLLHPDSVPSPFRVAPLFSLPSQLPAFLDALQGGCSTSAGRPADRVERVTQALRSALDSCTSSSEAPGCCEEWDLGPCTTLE
The test is described as above.

“AnapC7 (HA-tagged) (from UniProt Q9WVM3 1-565)”: the binding result in test [1] and in test [2] was “binds” throughout.

Source of the values: publication PMC3726431.
